Measured values published in the supplement of paper PMC8728848.
Some of the results follow.

Legend:
Test in all cases: glycan array binding signal (z-score within array); higher = stronger binding
Settings in all cases: glycan notation: IUPAC condensed, linker removed
Fuc(a1-2)Gal = target: Fuc(a1-2)Gal
How it was run: (§1)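 Arrays were curated from the Consortium for Functional Glycomics database, 3228 in total, and kept only where the protein sequence was available. Binding is expressed as a within-array Z-score. This score was averaged across arrays of the same protein sequence at different concentrations or buffers and across linkers, and negative values can be read as non-binding.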

Fuc(a1-2)Gal(b1-3)GalNAc = target: Fuc(a1-2)Gal(b1-3)GalNAc
How it was run: as §1

[1] = target: Fuc(a1-2)Gal(b1-3)GalNAc(a1-3)[Fuc(a1-2)]Gal(b1-4)Glc
How it was run: as §1

[2] = target: Fuc(a1-2)Gal(b1-3)GalNAc(a1-3)[Fuc(a1-2)]Gal(b1-4)GlcNAc
How it was run: as §1

[3] = target: Fuc(a1-2)Gal(b1-3)GalNAc(b1-3)Gal
How it was run: as §1

[4] = target: Fuc(a1-2)Gal(b1-3)GalNAc(b1-3)Gal(a1-4)Gal(b1-4)Glc
How it was run: as §1

[5] = target: Fuc(a1-2)Gal(b1-3)GalNAc(b1-4)[Neu5Ac(a2-3)]Gal(b1-4)Glc
How it was run: as §1

Fuc(a1-2)Gal(b1-3)GlcNAc = target: Fuc(a1-2)Gal(b1-3)GlcNAc
How it was run: as §1

[6] = target: Fuc(a1-2)Gal(b1-3)GlcNAc(b1-2)Man(a1-3)[Fuc(a1-2)Gal(b1-3)GlcNAc(b1-2)Man(a1-6)]Man(b1-4)GlcNAc(b1-4)GlcNAc
How it was run: as §1

[7] = target: Fuc(a1-2)Gal(b1-3)GlcNAc(b1-2)Man(a1-3)[Fuc(a1-2)Gal(b1-3)GlcNAc(b1-2)Man(a1-6)]Man(b1-4)GlcNAc(b1-4)[Fuc(a1-6)]GlcNAc
How it was run: as §1

[8] = target: Fuc(a1-2)Gal(b1-3)GlcNAc(b1-3)Gal(b1-4)Glc
How it was run: as §1

[9] = target: Fuc(a1-2)Gal(b1-3)GlcNAc(b1-3)GalNAc
How it was run: as §1

[10] = target: Fuc(a1-2)Gal(b1-3)GlcNAc(b1-3)[Fuc(a1-2)Gal(b1-3)GlcNAc(b1-6)]GalNAc
How it was run: as §1

[11] = target: Fuc(a1-2)Gal(b1-3)GlcNAc(b1-3)[Gal(b1-4)GlcNAc(b1-6)]Gal(b1-4)Glc
How it was run: as §1

[12] = target: Fuc(a1-2)Gal(b1-3)GlcNAc(b1-3)[Neu5Ac(a2-6)Gal(b1-4)GlcNAc(b1-6)]Gal(b1-4)Glc
How it was run: as §1

[13] = target: Fuc(a1-2)Gal(b1-3)GlcNAc6S
How it was run: as §1

[14] = target: Fuc(a1-2)Gal(b1-3)[Fuc(a1-4)]GlcNAc
How it was run: as §1

[15] = target: Fuc(a1-2)Gal(b1-3)[Fuc(a1-4)]GlcNAc(b1-2)Man(a1-3)[Fuc(a1-2)Gal(b1-3)[Fuc(a1-4)]GlcNAc(b1-2)Man(a1-3)]Man(b1-4)GlcNAc(b1-4)GlcNAc
How it was run: as §1

[16] = target: Fuc(a1-2)Gal(b1-3)[Fuc(a1-4)]GlcNAc(b1-2)Man(a1-3)[Fuc(a1-2)Gal(b1-3)[Fuc(a1-4)]GlcNAc(b1-2)Man(a1-6)]Man(b1-4)GlcNAc(b1-4)[Fuc(a1-6)]GlcNAc(b1-4)[Fuc(a1-6)]GlcNAc
How it was run: as §1

[17] = target: Fuc(a1-2)Gal(b1-3)[Fuc(a1-4)]GlcNAc(b1-3)[Fuc(a1-3)[Gal(b1-4)]GlcNAc(b1-6)]Gal(b1-4)Glc
How it was run: as §1

[18] = target: Fuc(a1-2)Gal(b1-3)[Fuc(a1-4)]GlcNAc(b1-3)[Gal(b1-4)GlcNAc(b1-6)]Gal(b1-4)Glc
How it was run: as §1

[19] = target: Fuc(a1-2)Gal(b1-4)Fuc(a1-3)]GlcNAc(b1-2)Man(a1-3)[Fuc(a1-2)Gal(b1-4)[Fuc(a1-3)]GlcNAc(b1-2)Man(a1-6)]Man(b1-4)GlcNAc(b1-4)GlcNAc
How it was run: as §1

Fuc(a1-2)Gal(b1-4)Glc = target: Fuc(a1-2)Gal(b1-4)Glc
How it was run: as §1

Fuc(a1-2)Gal(b1-4)Glc6S = target: Fuc(a1-2)Gal(b1-4)Glc6S
How it was run: as §1

Fuc(a1-2)Gal(b1-4)GlcNAc = target: Fuc(a1-2)Gal(b1-4)GlcNAc
How it was run: as §1

[20] = target: Fuc(a1-2)Gal(b1-4)GlcNAc(b1-2)Man
How it was run: as §1

[21] = target: Fuc(a1-2)Gal(b1-4)GlcNAc(b1-2)Man(a1-3)[Fuc(a1-2)Gal(b1-4)GlcNAc(b1-2)Man(a1-6)]Man(b1-4)GlcNAc(b1-4)GlcNAc
How it was run: as §1

[22] = target: Fuc(a1-2)Gal(b1-4)GlcNAc(b1-2)Man(a1-3)[Fuc(a1-2)Gal(b1-4)GlcNAc(b1-2)Man(a1-6)]Man(b1-4)GlcNAc(b1-4)[Fuc(a1-6)]GlcNAc
How it was run: as §1

[23] = target: Fuc(a1-2)Gal(b1-4)GlcNAc(b1-2)[Fuc(a1-2)Gal(b1-4)GlcNAc(b1-4)]Man(a1-3)[Fuc(a1-2)Gal(b1-4)GlcNAc(b1-2)Man(a1-6)]Man(b1-4)GlcNAc(b1-4)GlcNAc
How it was run: as §1

[24] = target: Fuc(a1-2)Gal(b1-4)GlcNAc(b1-3)Gal(b1-4)GlcNAc
How it was run: as §1

B1: MtEccB1 (Mycobacterium tuberculosis H37Rv), O69734 (protein)
chain: MGLRLTTKVQVSGWRFLLRRLEHAIVRRDTRMFDDPLQFYSRSIALGIVVAVLILAGAALLAYFKPQGKLGGTSLFTDRATNQLYVLLSGQLHPVYNLTSARLVLGNPANPATVKSSELSKLPMGQTVGIPGAPYATPVSAGSTSIWTLCDTVARADSTSPVVQTAVIAMPLEIDASIDPLQSHEAVLVSYQGETWIVTTKGRHAIDLTDRALTSSMGIPVTARPTPISEGMFNALPDMGPWQLPPIPAAGAPNSLGLPDDLVIGSVFQIHTDKGPQYYVVLPDGIAQVNATTAAALRATQAHGLVAPPAMVPSLVVRIAERVYPSPLPDEPLKIVSRPQDPALCWSWQRSAGDQSPQSTVLSGRHLPISPSAMNMGIKQIHGTATVYLDGGKFVALQSPDPRYTESMYYIDPQGVRYGVPNAETAKSLGLSSPQNAPWEIVRLLVDGPVLSKDAALLEHDTLPADPSPRKVPAGASGAP
Fuc(a1-2)Gal
  glycan array binding signal (z-score): -0.548
Fuc(a1-2)Gal(b1-3)GalNAc
  glycan array binding signal (z-score): -0.692
[1]
  glycan array binding signal (z-score): -1.05
[2]
  glycan array binding signal (z-score): -0.826
[3]
  glycan array binding signal (z-score): -1.11
[4]
  glycan array binding signal (z-score): -0.405
[5]
  glycan array binding signal (z-score): -0.249
Fuc(a1-2)Gal(b1-3)GlcNAc
  glycan array binding signal (z-score): -0.229
[6]
  glycan array binding signal (z-score): 1.17
[7]
  glycan array binding signal (z-score): -0.664
[8]
  glycan array binding signal (z-score): -0.246
[9]
  glycan array binding signal (z-score): -1.4
[10]
  glycan array binding signal (z-score): -0.346
[11]
  glycan array binding signal (z-score): 0.321
[12]
  glycan array binding signal (z-score): -0.773
[13]
  glycan array binding signal (z-score): -0.141
[14]
  glycan array binding signal (z-score): -0.545
[15]
  glycan array binding signal (z-score): 1
[16]
  glycan array binding signal (z-score): 0.829
[17]
  glycan array binding signal (z-score): -0.855
[18]
  glycan array binding signal (z-score): -0.485
[19]
  glycan array binding signal (z-score): 0.79
Fuc(a1-2)Gal(b1-4)Glc
  glycan array binding signal (z-score): -0.705
Fuc(a1-2)Gal(b1-4)Glc6S
  glycan array binding signal (z-score): -0.973
Fuc(a1-2)Gal(b1-4)GlcNAc
  glycan array binding signal (z-score): 0.445
[20]
  glycan array binding signal (z-score): 0.619
[21]
  glycan array binding signal (z-score): -0.208
[22]
  glycan array binding signal (z-score): 0.26
[23]
  glycan array binding signal (z-score): 0.186
[24]
  glycan array binding signal (z-score): -0.199
